Protein sequences, listed by entry. Tags and fused reporters are not part of them.
UniProt P08173, whole entry: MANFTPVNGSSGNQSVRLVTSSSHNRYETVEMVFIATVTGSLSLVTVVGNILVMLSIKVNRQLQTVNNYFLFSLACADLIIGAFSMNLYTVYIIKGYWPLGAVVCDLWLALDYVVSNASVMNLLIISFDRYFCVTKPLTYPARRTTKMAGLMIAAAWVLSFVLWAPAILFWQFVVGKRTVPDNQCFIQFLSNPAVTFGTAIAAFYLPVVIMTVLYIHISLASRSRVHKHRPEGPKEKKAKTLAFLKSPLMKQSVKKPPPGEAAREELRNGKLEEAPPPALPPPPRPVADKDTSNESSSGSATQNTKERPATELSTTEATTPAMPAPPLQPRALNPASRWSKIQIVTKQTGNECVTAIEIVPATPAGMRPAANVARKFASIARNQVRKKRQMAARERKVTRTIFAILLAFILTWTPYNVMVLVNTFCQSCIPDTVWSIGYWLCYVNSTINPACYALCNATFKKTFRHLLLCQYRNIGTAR
UniProt P11229, whole entry: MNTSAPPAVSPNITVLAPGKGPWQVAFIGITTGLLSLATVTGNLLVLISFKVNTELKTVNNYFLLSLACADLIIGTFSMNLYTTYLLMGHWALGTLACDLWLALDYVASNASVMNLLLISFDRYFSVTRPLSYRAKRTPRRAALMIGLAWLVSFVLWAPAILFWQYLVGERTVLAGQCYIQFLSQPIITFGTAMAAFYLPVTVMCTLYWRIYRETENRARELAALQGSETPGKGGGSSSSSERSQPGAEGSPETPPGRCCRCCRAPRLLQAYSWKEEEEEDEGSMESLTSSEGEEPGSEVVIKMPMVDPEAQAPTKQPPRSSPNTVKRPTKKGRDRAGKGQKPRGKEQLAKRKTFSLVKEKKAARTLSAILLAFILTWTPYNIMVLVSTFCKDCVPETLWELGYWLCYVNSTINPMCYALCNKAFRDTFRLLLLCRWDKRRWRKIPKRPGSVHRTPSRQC

In US10329278B2, “Pharmaceutical compounds” (Heptares Therapeutics Limited, priority 2017, dated 2019):

Experiments:
[1] = target: human muscarinic M4 receptor (Homo sapiens, UniProt P08173); assay: Alphascreen Surefire phospho-ERK1/2 functional assay, M4; type: cell-based; details: CHO cells stably expressing human M4
[2] = target: human muscarinic M1 receptor (Homo sapiens, UniProt P11229); assay: Alphascreen Surefire phospho-ERK1/2 functional assay, M1; details: CHO cells stably expressing human M1

Q: How did the “pEC50 M4” value ([1]; agonist 5 min, 37° C.) turn out when `CCOC(=O)N1CCC2(CC(N3C[C@@H]4[C@H](C3)[C@H]4C(=O)N(C)CC)C2)C1` (single isomer, unassigned) was run?
A: 5.71 and 6.72

Q: What about the “% Emax cf. ACh (M4)” value ([1]; relative to ACh) of the same compound?
A: 37% and 85%

Q: What about the “pEC50 M1” value ([2]; agonist 5 min, 37° C.) of the same compound?
A: 4.70 and 7.25

Q: What about the “% Emax cf. ACh (M1)” value ([2]; relative to ACh) of the same compound?
A: 26% and 107%

Not every entry of the source has a single result; some have several. This is not the full list of results. An entry can have further records. Values given together differ for a reason that is not stated; some may be repeats, others may stem from another dose, organism or construct than stated.
